No constants are given. Whether binding was seen depends on the method and setting. Binding seen in cells or lysates may run through a third protein. These calls come from enrichment with a bait or labelling near it, and not all partners need be listed. Tags and fused reporters may be left off the sequences shown.

Protein sequences, listed by entry. Tags and fused reporters are not part of them.
UniProt Q92841: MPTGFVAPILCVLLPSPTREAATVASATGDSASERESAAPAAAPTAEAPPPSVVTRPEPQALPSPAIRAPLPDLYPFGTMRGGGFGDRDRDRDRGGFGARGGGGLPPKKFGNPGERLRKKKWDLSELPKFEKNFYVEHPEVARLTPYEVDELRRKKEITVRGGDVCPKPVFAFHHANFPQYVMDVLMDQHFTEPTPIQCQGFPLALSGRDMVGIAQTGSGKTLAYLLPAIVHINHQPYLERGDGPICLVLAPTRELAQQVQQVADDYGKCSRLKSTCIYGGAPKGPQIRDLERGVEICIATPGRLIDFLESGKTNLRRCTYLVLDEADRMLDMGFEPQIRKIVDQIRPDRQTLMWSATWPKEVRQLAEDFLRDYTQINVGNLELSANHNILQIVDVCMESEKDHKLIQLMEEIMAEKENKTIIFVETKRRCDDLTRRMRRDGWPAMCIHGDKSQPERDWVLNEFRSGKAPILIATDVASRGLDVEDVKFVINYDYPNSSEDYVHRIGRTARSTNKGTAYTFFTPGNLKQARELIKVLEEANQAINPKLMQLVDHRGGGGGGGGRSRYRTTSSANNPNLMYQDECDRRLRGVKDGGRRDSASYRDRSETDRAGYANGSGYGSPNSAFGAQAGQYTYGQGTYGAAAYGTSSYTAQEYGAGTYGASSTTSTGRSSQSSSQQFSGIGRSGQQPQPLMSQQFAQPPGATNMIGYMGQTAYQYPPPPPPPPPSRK
UniProt P0DMV8: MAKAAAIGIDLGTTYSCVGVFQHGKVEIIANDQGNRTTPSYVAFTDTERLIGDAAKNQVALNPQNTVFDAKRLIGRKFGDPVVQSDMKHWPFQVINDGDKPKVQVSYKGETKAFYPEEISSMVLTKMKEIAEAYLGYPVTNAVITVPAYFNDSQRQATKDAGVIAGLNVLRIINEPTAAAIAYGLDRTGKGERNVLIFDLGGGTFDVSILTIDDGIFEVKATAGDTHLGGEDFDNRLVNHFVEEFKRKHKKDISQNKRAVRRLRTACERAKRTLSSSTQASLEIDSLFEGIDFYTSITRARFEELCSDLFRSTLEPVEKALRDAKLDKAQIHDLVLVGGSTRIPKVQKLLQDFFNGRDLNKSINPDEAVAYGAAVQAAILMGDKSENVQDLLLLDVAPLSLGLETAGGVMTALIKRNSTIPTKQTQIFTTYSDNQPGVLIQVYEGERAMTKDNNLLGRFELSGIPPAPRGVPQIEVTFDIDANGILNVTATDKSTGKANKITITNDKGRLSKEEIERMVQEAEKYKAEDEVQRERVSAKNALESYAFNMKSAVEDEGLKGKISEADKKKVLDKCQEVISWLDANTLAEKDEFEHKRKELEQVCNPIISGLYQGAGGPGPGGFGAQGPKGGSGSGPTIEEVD
UniProt P17066: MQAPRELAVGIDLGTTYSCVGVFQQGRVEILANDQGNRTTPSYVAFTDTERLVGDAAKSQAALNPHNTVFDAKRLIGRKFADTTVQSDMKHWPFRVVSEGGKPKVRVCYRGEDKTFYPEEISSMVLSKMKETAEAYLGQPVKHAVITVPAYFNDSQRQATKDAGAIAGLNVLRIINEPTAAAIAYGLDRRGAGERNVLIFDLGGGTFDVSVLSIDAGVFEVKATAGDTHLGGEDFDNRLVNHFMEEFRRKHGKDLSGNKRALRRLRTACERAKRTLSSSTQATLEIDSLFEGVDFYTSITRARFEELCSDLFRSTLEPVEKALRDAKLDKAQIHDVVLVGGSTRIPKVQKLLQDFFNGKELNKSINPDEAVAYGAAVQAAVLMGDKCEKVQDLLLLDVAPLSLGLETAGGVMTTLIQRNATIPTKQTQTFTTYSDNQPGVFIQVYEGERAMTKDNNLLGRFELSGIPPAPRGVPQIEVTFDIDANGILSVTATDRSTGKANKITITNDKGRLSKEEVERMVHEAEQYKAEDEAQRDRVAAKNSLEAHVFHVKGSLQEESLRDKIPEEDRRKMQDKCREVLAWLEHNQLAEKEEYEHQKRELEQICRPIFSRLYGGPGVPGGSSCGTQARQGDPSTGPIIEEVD
UniProt P11940: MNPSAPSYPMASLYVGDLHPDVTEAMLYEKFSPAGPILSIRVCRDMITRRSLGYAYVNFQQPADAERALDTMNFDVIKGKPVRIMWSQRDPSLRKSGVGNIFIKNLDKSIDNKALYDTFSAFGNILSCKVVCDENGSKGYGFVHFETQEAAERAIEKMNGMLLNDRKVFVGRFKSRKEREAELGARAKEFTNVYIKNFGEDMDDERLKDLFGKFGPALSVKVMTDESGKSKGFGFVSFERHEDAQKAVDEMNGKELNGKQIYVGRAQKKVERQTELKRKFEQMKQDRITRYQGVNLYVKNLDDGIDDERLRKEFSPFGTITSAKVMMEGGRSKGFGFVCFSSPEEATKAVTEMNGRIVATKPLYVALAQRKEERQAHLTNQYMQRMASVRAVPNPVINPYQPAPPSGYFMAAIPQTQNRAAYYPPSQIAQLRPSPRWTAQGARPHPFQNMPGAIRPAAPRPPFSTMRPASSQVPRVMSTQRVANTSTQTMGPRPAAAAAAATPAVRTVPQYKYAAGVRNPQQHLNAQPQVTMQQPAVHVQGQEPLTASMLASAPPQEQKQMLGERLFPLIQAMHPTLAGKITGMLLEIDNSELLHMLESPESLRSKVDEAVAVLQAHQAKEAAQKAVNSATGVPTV
UniProt O60506: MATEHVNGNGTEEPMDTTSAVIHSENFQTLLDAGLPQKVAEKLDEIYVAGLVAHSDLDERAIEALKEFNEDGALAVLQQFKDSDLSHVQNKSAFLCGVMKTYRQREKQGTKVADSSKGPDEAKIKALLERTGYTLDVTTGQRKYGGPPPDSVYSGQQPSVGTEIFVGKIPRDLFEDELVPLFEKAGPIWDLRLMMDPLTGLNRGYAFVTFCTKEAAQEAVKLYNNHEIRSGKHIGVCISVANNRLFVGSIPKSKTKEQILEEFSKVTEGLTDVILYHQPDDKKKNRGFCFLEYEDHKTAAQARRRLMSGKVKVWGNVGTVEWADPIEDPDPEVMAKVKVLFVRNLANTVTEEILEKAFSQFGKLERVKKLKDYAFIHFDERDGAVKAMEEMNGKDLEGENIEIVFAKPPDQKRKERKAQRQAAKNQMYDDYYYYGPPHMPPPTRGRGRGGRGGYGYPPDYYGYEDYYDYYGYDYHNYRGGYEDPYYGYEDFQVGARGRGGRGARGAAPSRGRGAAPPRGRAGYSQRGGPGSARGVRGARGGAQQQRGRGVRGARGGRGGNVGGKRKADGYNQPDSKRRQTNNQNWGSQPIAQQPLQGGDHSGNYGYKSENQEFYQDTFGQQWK
UniProt Q9UPQ9: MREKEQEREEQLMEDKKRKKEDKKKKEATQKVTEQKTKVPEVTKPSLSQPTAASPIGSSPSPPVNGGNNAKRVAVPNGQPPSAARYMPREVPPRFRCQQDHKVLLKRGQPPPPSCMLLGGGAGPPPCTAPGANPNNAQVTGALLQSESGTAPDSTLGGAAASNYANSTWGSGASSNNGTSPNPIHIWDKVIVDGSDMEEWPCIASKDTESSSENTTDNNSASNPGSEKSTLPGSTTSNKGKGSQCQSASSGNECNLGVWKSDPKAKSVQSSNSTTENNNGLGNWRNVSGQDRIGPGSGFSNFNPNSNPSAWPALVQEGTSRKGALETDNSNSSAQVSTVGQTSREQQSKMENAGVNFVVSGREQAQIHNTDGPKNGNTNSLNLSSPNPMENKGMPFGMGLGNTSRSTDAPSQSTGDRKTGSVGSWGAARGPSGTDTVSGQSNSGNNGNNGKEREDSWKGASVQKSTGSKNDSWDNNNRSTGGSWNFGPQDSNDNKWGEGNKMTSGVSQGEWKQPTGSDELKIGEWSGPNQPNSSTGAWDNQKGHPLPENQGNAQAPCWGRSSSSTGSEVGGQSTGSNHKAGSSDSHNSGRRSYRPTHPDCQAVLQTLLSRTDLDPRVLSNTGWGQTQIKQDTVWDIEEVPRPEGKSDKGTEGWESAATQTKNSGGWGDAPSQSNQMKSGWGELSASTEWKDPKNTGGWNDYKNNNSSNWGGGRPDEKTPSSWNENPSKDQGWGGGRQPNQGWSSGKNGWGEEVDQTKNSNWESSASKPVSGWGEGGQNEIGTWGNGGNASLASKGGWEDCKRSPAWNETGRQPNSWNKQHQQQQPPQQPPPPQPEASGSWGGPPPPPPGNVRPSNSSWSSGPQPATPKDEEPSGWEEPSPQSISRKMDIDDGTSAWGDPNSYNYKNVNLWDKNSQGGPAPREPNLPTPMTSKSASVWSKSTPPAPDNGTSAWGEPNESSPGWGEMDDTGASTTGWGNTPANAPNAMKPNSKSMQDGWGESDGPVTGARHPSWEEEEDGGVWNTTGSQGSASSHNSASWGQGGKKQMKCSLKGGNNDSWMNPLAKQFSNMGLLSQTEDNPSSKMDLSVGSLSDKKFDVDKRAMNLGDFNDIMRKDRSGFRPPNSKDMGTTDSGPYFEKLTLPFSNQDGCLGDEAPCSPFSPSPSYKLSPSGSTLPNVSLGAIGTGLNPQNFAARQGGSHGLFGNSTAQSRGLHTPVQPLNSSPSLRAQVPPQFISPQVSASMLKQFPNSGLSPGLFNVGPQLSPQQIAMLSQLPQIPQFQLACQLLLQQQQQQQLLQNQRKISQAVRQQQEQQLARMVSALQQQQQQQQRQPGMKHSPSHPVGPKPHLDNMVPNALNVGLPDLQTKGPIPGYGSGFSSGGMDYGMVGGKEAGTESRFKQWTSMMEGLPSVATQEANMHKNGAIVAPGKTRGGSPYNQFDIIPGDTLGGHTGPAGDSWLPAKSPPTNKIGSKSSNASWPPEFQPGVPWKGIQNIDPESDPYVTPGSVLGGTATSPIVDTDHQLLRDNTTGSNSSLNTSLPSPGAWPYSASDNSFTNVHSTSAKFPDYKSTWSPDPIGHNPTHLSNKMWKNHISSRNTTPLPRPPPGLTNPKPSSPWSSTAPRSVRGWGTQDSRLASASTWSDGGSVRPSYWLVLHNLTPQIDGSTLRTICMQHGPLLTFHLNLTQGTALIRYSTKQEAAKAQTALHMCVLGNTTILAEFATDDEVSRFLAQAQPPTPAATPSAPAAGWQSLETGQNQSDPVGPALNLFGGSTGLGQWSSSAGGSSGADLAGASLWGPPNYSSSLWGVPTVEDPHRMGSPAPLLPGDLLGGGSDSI

The assay concerns the target T1, FLAG-tagged DND1 wild-type (Dead End, full-length human protein 1-353) (human) (UniProt Q8IYX4).
T1 sequence: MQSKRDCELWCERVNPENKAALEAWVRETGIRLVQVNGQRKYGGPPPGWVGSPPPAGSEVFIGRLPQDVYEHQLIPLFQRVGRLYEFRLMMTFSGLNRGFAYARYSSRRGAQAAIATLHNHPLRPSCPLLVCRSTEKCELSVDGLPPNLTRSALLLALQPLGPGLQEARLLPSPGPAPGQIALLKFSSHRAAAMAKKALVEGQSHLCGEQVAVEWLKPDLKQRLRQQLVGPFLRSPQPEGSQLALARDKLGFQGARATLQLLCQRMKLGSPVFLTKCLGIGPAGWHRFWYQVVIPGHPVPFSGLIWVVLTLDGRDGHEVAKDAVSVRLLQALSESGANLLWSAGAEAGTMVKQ
Put plainly: affinity purification with mass spectrometry; lysate of HEK293T cells transfected with FLAG-tagged DND1 WT, R98A or 1-235 on FLAG-M2 magnetic beads overnight at 4 °C; IP-Lysis buffer 50 mM Tris-HCl pH 7.4, 150 mM NaCl, 1 mM EDTA, 0.5% Triton X-100; trypsin digestion on the beads, shotgun LC-MS/MS; three biological replicates; no RNase treatment described.
On to DDX17 (from UniProt Q92841 1-729), for which the binding entry is given as “binds”.
For HSPA1A (from UniProt P0DMV8 1-641) the value was “binds”; for HSPA6 (from UniProt P17066 1-643), “binds”.
To PABPC1 (from UniProt P11940 1-636) belongs “binds”; to SYNCRIP (from UniProt O60506 1-623), “binds”; to TNRC6B (from UniProt Q9UPQ9 1-1833), “binds”.

Source of the values: article PMC9537309.
